Measured values as given in patent publication EP4843985A1, “TRIAZOLOPYRIMIDINE DERIVATIVE, PREPARATION METHOD THEREFOR AND USE THEREOF” (dated 2026).
The structures given here were assigned with low confidence; some may be wrong.

Sequences of proteins named here, by UniProt entry; tags and fusion partners are left off.
UniProt Q12809, whole entry: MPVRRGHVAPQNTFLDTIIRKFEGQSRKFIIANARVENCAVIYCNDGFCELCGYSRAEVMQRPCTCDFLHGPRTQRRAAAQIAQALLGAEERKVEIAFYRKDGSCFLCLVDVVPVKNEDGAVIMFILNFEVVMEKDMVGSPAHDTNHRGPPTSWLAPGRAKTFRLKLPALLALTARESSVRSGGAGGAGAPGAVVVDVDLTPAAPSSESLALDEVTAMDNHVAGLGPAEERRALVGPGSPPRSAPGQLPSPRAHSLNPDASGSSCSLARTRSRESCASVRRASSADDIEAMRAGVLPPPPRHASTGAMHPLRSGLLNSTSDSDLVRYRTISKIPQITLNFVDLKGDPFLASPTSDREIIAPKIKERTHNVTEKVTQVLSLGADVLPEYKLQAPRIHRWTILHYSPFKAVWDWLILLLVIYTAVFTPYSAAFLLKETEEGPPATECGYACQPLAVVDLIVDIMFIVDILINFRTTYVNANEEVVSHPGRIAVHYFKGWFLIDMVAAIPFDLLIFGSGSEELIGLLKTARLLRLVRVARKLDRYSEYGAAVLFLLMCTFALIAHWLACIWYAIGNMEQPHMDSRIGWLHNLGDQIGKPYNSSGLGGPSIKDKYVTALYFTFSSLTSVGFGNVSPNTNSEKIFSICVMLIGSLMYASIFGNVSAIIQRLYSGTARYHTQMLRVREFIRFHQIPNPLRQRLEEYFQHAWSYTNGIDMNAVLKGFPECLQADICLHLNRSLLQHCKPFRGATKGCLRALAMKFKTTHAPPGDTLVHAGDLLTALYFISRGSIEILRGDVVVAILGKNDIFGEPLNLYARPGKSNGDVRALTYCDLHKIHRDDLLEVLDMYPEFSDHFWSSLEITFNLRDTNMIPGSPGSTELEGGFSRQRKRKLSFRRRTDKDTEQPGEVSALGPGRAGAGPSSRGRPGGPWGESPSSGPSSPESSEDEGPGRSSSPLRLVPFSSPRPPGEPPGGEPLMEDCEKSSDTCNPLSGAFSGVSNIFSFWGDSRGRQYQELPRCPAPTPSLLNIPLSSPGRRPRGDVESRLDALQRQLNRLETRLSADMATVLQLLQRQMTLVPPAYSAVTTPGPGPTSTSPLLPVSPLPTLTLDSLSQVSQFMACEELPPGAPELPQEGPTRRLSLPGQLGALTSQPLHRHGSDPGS

Tests used:
hERG potassium channel = hERG potassium channel (Homo sapiens, UniProt Q12809); assay: Whole-cell manual patch clamp assay (CHO-hERG cells); details: for inhibitory effect on hERG potassium channel current (in words): comparison with 21A / general statement; for IC50: read-out: IC50 (µM) for inhibition of hERG potassium channel current, CHO-hERG cells, tail current at -50 mV
Excerpt: In this assay, the electrophysiological whole-cell manual voltage clamp method was used to test the effect of the compounds on the hERG potassium channel (human Ether-a-go-go Related Gene potassium channel) current.
Cisapride, sodium chloride, potassium chloride, magnesium chloride, calcium chloride, glucose, HEPES, EGTA, and DMSO were purchased from Sigma; the CHO-hERG cell line (Chinese Hamster Ovary) (Chinese hamster ovary cells stably expressing the hERG channel) was constructed internally by the Ion Channel Research Platform of the Shanghai Institute of Materia Medica, Chinese Academy of Sciences.
Cell culture and treatment: CHO cells stably expressing hERG were cultured in 35-mm-diameter cell culture dishes, placed in an incubator at 37°C with 5% CO2, and passaged every 48 hours at a ratio of 1:5. The culture medium formulation: 90% F12 (Invitrogen), 10% fetal bovine serum (Gibco), 100 µg/mL G418 (Invitrogen), and 100 µg/mL Hygromycin B (Invitrogen). On the day of the experiment, the cell culture medium was aspirated, the cells were rinsed once with extracellular fluid, and then 0.25% Trypsin-EDTA (Invitrogen) solution was added, followed by digestion at room temperature for 3-5 minutes. The digestion solution was aspirated, and the cells were resuspended in extracellular fluid, and then transferred to experimental dishes for electrophysiological recording for later use.
Compound preparation: On the day of testing, the compounds were prepared as 20 mM stock solutions in DMSO. The stock solutions were then subjected to 3-fold serial dilutions with DMSO and subsequently diluted with extracellular solution to obtain the desired final test concentrations. Preparation of positive control compound cisapride: 10 µL of 150 µM cisapride DMSO stock solution was taken and added to 4990 µL of extracellular fluid, diluted 500-fold to obtain the desired final test concentration of 300 nM.
Electrophysiological recording process: CHO cells stably expressing the hERG potassium channel were used to record hERG potassium channel currents at room temperature using the whole-cell voltage-clamp technique. Glass microelectrodes were fabricated from glass electrode blanks (BF150-86-10, Sutter) using a puller. After filling with electrode internal solution, the tip resistance was approximately 2-5 MΩ. The glass microelectrodes were inserted into the amplifier headstage to connect to the patch-clamp amplifier. The clamping voltage and data recording were controlled and recorded by pClamp software via a computer, with a sampling frequency of 10 kHz and a filter frequency of 2 kHz. After obtaining the whole-cell recording, the cells were clamped at -100 mV. […]

[1] = Pharmacokinetics in balb/c nude mice (IV and PO); details: for F: 10 mg/kg (vs IV 1 mg/kg)
[2] = Pharmacokinetics in dogs (IV and PO)
Procedure: Using mice, rats, dogs, and monkeys as test animals, the compounds of the present disclosure were studied after intravenous bolus injection and oral administration. Plasma samples were collected at specific time points, and the concentrations of the compounds in plasma were detected by LC-MS/MS. PK parameters were calculated to reflect the pharmacokinetic behavior of the compounds of the present disclosure in mouse plasma in vivo.
Beagle dogs, male, Beijing Marshall Biotechnology Co.,Ltd.
Administration information for dog: The IV administration dose was 0.5 mg/kg, with an administration volume of 0.5 mL/kg; the IV administration dose was 1 mg/kg, with an administration volume of 0.5 mL/kg; the PO administration dose was 1 mg/kg, with an administration volume of 2 mL/kg; and the vehicle was 10 vol% DMSO/20 vol% Solutol/70 vol% Saline.
After administration to mice, rats, dogs, and monkeys, blood was collected from the vein at 0.0833 (IV), 0.25, 0.5, 1, 2, 4, 8, and 24 hours, with volumes of 0.025, 0.2, 0.5, and 0.6 mL, respectively, placed into EDTA-K2 tubes, and centrifuged at 4°C and 2000 g for 10 min to separate plasma, which was stored at -80°C.
Dog plasma sample processing: • 1) 50 µL of plasma sample was added to 200 µL of acetonitrile for precipitation, vortexed to mix, and then centrifuged for 15 minutes. • 2) The treated supernatant was diluted with water, and the concentration of the test compound was analyzed by LC/MS/MS.
Herein, Cmax represents the maximum plasma concentration; CL represents clearance; Vss represents the volume of distribution at steady state; T1/2 represents the terminal elimination half-life; MRTInf represents the mean residence time; AUC represents the area under the plasma concentration-time curve; and F represents bioavailability. Table 6 Pharmacokinetic parameters of some compounds of the present disclosure after intravenous injection and oral administration in balb/c nude mice

Row | AUC ([1]; IV, 1 mg/kg) | T1/2 ([1]; IV, 1 mg/kg) | AUC ([1]; PO, 10 mg/kg) | Cmax ([1]; PO, 10 mg/kg) | T1/2 ([1]; PO, 10 mg/kg) | F ([1]; PO) | AUC ([2]; IV, 0.5 mg/kg) | Cmax ([2]; IV, 0.5 mg/kg) | T1/2 ([2]; IV, 0.5 mg/kg) | AUC ([2]; PO, 1 mg/kg) | Cmax ([2]; PO, 1 mg/kg) | F ([2]; PO, 1 mg/kg) | T1/2 ([2]; PO, 1 mg/kg) | CL ([2]; IV, 0.5 mg/kg) | Structure (SMILES) | inhibitory effect on hERG potassium channel current (in words) (hERG potassium channel) | IC50 (hERG potassium channel)
1 | 3528 ng·h/mL | 2.17 h | 22224 ng·h/mL | 4923 ng/mL | 2.14 h | 60.8% | 1.475 µM·h | 0.34 nM | 6.49 h | 3.097 µM·h | 421 nM | 107% | 7.61 h |  | [2H]C1([2H])CCC(c2nc3n4c(c(N5CCN(C(=O)c6ncnc(C)c6O)[C@H]6CC[C@@H]65)c(=O)n3n2)[C@H](C)C[C@@H]4C(=O)Nc2ccc(C(F)(F)F)cc2Cl)=CCO1 | significantly reduce the inhibitory effect of the compound on hERG potassium channel current | 62.1 µM
2 | 1652 ng·h/mL | 1.27 h | 8266 ng·h/mL | 3543 ng/mL | 1.42 h | 51% | 1.345 µM·h |  | 2.89 h | 4.199 µM·h | 705 nM | 111% | 3.72 h | 11 mL/day/kg | [2H]C1([2H])CCC(c2nc3n4c(c(N5CCN(C(=O)c6ncnc(C)c6O)[C@H]6CC[C@@H]65)c(=O)n3n2)[C@H](C)C[C@@H]4C(=O)Nc2scc(C(F)(F)F)c2C)=CCO1 | further significantly reduce the inhibitory effect of the compound on hERG potassium channel current | > 100 µM
